According to PubChem BioAssay AID488856 (Sanford-Burnham Center for Chemical Genomics, 2010):
The whole screen tested about 1,400 compounds, of which about 50 (4%) were called active.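 Rule for the calls: active = mean inhibition across replicates above about 26% (limit read from the data); inactive = the rest.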 The entries are a selection whose mix differs from that of the whole data set.

Chains of the proteins cited; added tags and fusions are not shown. Lines headed by an entry give the natural chain unless they say otherwise; changes in a name come on top.
UniProt P42574: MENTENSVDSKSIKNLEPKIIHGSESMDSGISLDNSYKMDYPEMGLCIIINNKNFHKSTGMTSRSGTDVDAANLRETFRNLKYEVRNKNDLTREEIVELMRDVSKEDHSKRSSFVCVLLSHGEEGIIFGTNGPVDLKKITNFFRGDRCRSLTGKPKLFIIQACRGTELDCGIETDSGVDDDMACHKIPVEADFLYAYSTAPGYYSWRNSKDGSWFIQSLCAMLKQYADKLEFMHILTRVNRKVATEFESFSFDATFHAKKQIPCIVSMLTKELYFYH

Target: Caspase-3 (Homo sapiens) (UniProt P42574)
Assay: CASP3 inhibitor validation, counterassay for project on UBE2N polyubiquitination blockers, biochemical, one dose (AID 488856);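 note: plate controls were DMSO with caspase-3 for no effect and DMSO wells lacking enzyme for full effect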
Conditions: Recombinant caspase-3, Caspase-Glo 3/7 luminescence, 60 min; at 20 µM; hits give high values

Row | SMILES | inhibition
1 | CNCC(O)c1cc(F)c(OCc2ccccc2)c(OCc2ccccc2)c1F (stereo unspecified) | inactive: -2.3%
